From the supplement of paper PMC5949888
Most values lie at the floor of the assay. Slopes are relative: functional sequences can read slightly below zero.

Test system: Saccharomyces cerevisiae PS128 hsf1 delta, HSF1(1-493) fusion
Assay: growth estimate (transactivation domain function in HSF1 fusion, heat-shock survival) (a.u. (slope of normalised read count over time)); higher = stronger growth at 37°C, i.e. more transactivation activity
Conditions: library: random library

Substance | growth estimate
LYHVDMVFPA | < -0.25
LYILNKGILGVSEASLSART | -0.246
LYIRDSWRKS | < -0.25
LYISPTDRSGEFLRVAWPAH | < -0.25
LYKLPTSCPFRGVVCIRRVG | < -0.25
LYKRVRRRKVHKGCPNRGQE | < -0.25
LYLCSNLSPSGVALKMNIQR | -0.229
LYLKTGCRNGFRIARK | < -0.25
LYLKTLFTENAHSNGRLPRP | < -0.25
LYLVWDPVTAHSLEPADVFL | < -0.25
LYMWFAAGFPCVRWVSVPIH | < -0.25
LYNSDCCLYRMQCGPSLIHE | < -0.25
LYPKAVRS | < -0.25
LYRL | -0.229
LYSSPSRGSLESDQRYGIK | < -0.25
LYSYSGDGTLMLSLVGINIS | < -0.25
LYTKEVVHNYVRYLVLGSLP | < -0.25
LYTPGP | < -0.25
LYVGNFAGVASSKVIGYARL | < -0.25
LYVRMRRVLTGNTQARN | < -0.25
LYWGAILDASRLLKTLPLST | < -0.25
MACSRGSCNSSI | < -0.25
MAEAVGLRQYARHLVDKVGA | < -0.25
MAIGHSFICRPPIKRC | < -0.25
MAKDYS | < -0.25

Substance | growth estimate
MANNGVLNGA | < -0.25
MANQTSNSRFIERGHSWTLP | < -0.25
MAPSL | < -0.25
MAQGDTDTYKGVPKGK | < -0.25
MARGLQPGPGTAFRRHEILS | < -0.25
MARSPAKNRVKVGRPRRIPA | < -0.25
MARVNSLL | < -0.25
MASTTRQKQSGRARSSIQSF | < -0.25
MAVNGPSISKSRFFDISRCL | < -0.25
MAVPPSDVTDRVR | < -0.25
MAVSESVGLAHILCV | < -0.25
MCEEPARVERSI | < -0.25
MCLHVIQRRGVDQAVP | < -0.25
MCLVEN | < -0.25
MCNQSAHRRSSGRAMAMRIF | -0.25
MCVDLPGTEHLLRKQCQ | < -0.25
MCYSSVDDHILHCSCRRDTA | < -0.25
MDCDQGFSTGRPAHLLHFKA | < -0.25
MDGGGTLYTR | < -0.25
MDWGLVLGY | < -0.25
MEDDCAAINVAERRFRTGGS | < -0.25
MEICERHGGGDLNATPTQAA | -0.246
MELDEARYARMDGSRSVHRV | < -0.25
MENVWEVIWKVSLGMRVVSI | < -0.25
MEPKGGTRTLGVV | < -0.25

Substance | growth estimate
MER | -0.243
MERRRRFWRKMCLQSMADAC | < -0.25
MES | < -0.25
MESRLLRPPGFL | < -0.25
MEYSLVICPKRRGDGIRELV | < -0.25
MFENSREVLT | < -0.25
MFGVGSNQDGYIMIDAFYLR | < -0.25
MFLLVGLGRVVGWALAVLSA | < -0.25
MFPCVKPASGLLPVTTQKPL | < -0.25
MFS | < -0.25
MFSHIAWSERAVSRDSRPRL | < -0.25
MGCTMLGTRELYNSDRIPGL | -0.243
MGEFNCRVVFMTFRRCRRSA | < -0.25
MGFGEIAGLW | < -0.25
MGFKLEES | < -0.25
MGGQMRFCPLWAQ | < -0.25
MGIEA | < -0.25
MGLHEKNR | < -0.25
MGLPWSPRDP | < -0.25
MGQRCCYFNTGERGGHALT | < -0.25
MGRGAKLDLRRMKL | < -0.25
MGRIMVVD | < -0.25
MGVMSDIRYETRPSIYRYRA | < -0.25
MHKFARLA | < -0.25
MHQWGRLRLDVIRPHSKDGA | < -0.25

Copied from the list.
growth estimate with MFGVGSNQDGYIMIDAFYLR is entered as < -0.25
growth estimate with MFENSREVLT is entered as < -0.25
growth estimate with MHQWGRLRLDVIRPHSKDGA is entered as < -0.25
growth estimate with MERRRRFWRKMCLQSMADAC is entered as < -0.25
growth estimate with MEYSLVICPKRRGDGIRELV is entered as < -0.25
growth estimate with MFSHIAWSERAVSRDSRPRL is entered as < -0.25

Next records

Substance | growth estimate
MIGHRRCRSTFAK | < -0.25
MILGHLARRYVSRK | < -0.25
MITGQIPRCVCGRVGRARIA | < -0.25
MIVNKSARQRSHSTPANAR | < -0.25
MKQSEMIVCKL | < -0.25
MKRHRAYLSASPSQRSC | < -0.25
MKRRDRHGGRPRHPPGLAAR | < -0.25
MKSDSGNRVLRSRLQYTPYM | < -0.25
MKTGGMTGFIIPAR | < -0.25
MLCSLARVRDLHGCVECIVH | < -0.25
MLGGRLKEPLAKYRQLRASG | < -0.25
MLGRSKLSIHWANCGTCPTS | < -0.25
MLGSYAWLCACFDLQKRRFQ | < -0.25
MLLNLYRHFNFRKQWNLSLV | < -0.25
MLRLVLDLGRLLEAADQDLK | < -0.25
MLRPQRGHGWSGYLAEKARM | < -0.25
MLTRPYRTLCPPNYPFEEYR | -0.245
MLVSGANL | < -0.25
MMKTFAT | < -0.25
MMRGAA | < -0.25
MMSV | < -0.25
MMVV | < -0.25
MNG | < -0.25
MNSE | < -0.25
MNSLCVESIGRPHPASVVLP | < -0.25

Substance | growth estimate
MNVHSMKVARFLYRGNPVAL | < -0.25
MPAGTLSLTLALKQPGLAWP | < -0.25
MPANYPGGLYSSLQSVQCVA | < -0.25
MPDPHVISISAARIFRPDSY | < -0.25
MPEDDLV | < -0.25
MPGNTSQECLAECSRVNDVR | < -0.25
MPLEPASAGGMFESVGAVFD | < -0.25
MPLLPRGDARTSRDSSKVCS | < -0.25
MPRGHPSLRGKSIRM | < -0.25
MPRITFLITVGTCVGDSVSH | < -0.25
MPSGGHRSPRLNESPVAYNP | < -0.25
MPTEASSSFQFDLCPVCRQV | < -0.25
MPTGESMGQHRG | -0.246
MQWLSTQGSTQRPVHKR | < -0.25
MRCASRNHEYHIVMFVEAQG | < -0.25
MRGLVHIGLDWLGVRPGRC | -0.219
MRGRVSLAAGSNSAWEIDFT | < -0.25
MRGYW | < -0.25
MRHGCRTELKCTCVDARSKP | < -0.25
MRHTFLRFISMCVGQGLRIA | < -0.25
MRL | < -0.25
MRLPNCSC | < -0.25
MRNP | < -0.25
MRRRATDV | < -0.25
MRTMLLEDLPSVLIHIARPS | < -0.25

Substance | growth estimate
MRTNC | < -0.25
MRTPQMTIREICRLVQCLLV | < -0.25
MRVVDANIRDDPRLL | < -0.25
MRWSRAQWRSLHQ | < -0.25
MRYTVVRSNF | < -0.25
MSARDAVTWDRQAGGPVYAT | < -0.25
MSCLRPIEDCSVPHP | < -0.25
MSERPGVA | < -0.25
MSF | < -0.25
MSGATAVDTVRERCSRIRKH | < -0.25
MSIFILR | < -0.25
MSIREKSDKRCAVAR | < -0.25
MSIRHPTLAHPGSDNLRRSP | < -0.25
MSMVFLAAFFCGKCTGNSFE | < -0.25
MSPLPHVKARLCCHERTASP | < -0.25
MSRILPLGEVAGV | < -0.25
MSRYTEMRICFNPAREAVG | < -0.25
MSSRLSRFPEPPSERQPGPG | < -0.25
MSTELVGDWVEGDFA | < -0.25
MSVYAGVRCIKTSNSPGSLR | < -0.25
MSWGTRLRTGVHKFQGRGA | < -0.25
MSYRHSPLTGKRCSGSQQSH | < -0.25
MTAAAGKFRALHEILSRP | < -0.25
MTAIHQRGYAPVLKHNKRPG | < -0.25
MTEGLAGLAWCSGSVIPDSV | < -0.25

Substance | growth estimate
MTFVVSVPCPGNPSLAYRVS | < -0.25
MTGASPSKYMPEQRWP | < -0.25
MTGVYEPL | < -0.25
MTIAIYED | < -0.25
MTIQTDVWDKLAPPRSGQRL | < -0.25
MTKLRSRRLGH | < -0.25
MTL | < -0.25
MTRLESIIVHHVI | < -0.25
MTRS | < -0.25
MTRYRYGQAPLSIGAAD | < -0.25
MVAANGVSGSSSADRGILCN | < -0.25
MVAGALRFRSRRGRS | < -0.25
MVAKPLQVNKSRNSMEGSYA | < -0.25
MVEGAVILNQARVGRRQREI | -0.25
MVISLLGVNFSSEASEPSRV | < -0.25
MVIVLRSSRVTFFPCTAEKC | < -0.25
MVPP | < -0.25
MVPVTMLRPVCKVGAILYLA | < -0.25
MVRLIRVLSMPRGQSLLGVT | < -0.25
MVRSLSFTIG | < -0.25
MVSNLANI | < -0.25
MVTMIASTMP | < -0.25
MVVANPQSMTGVVIFGSWAA | < -0.25
MVYSEREVFLFFHLQS | < -0.25
MWAREVGVGNAG | < -0.25

Substance | growth estimate
MWIGGYPDLKQPEGGGWNKN | < -0.25
MWSILR | < -0.25
MYAREQIVAPFATAGE | < -0.25
MYGGRDMVVGLRTGL | < -0.25
MYLHVVRRCVVRWVLGSPKL | < -0.25
MYPEPLLYV | -0.246
NAAKVSSSTFYCEQTTAASQ | < -0.25
NAGEPYRAGLRTAGVVWFLS | < -0.25
NAIRCT | < -0.25
NAIYREQARPNGCITRKAGL | < -0.25
NAKCRQCLYTFRPGGS | < -0.25
NAMVVSIKDGRDLSLVPADT | < -0.25
NASLVRNALLARLNIGPARY | < -0.25
NATGRAWCA | -0.0712
NAVACDHTHLVHVVHWALFG | < -0.25
NAVTTSL | < -0.25
NCAEDKLVVLRVPTGRGIRS | < -0.25
NCDWDGWG | -0.23
NCFEYH | < -0.25
NCFVGSMIVALAESPPIKTP | < -0.25
NCHKIRHRGINMHRAGQVV | < -0.25

A section from further up:
Substance | growth estimate
NAGEPYRAGLRTAGVVWFLS | < -0.25
NAIRCT | < -0.25
NAIYREQARPNGCITRKAGL | < -0.25
NAKCRQCLYTFRPGGS | < -0.25
NAMVVSIKDGRDLSLVPADT | < -0.25
NASLVRNALLARLNIGPARY | < -0.25
NATGRAWCA | -0.0712
